Source: article PMC9611540 (Frontiers in Molecular Biosciences, 2022)
Strings that start with PEPTIDE1 are HELM notation: dots part the residues, brackets hold end groups and non-standard residues.

Experiment: general procedure: Fmoc solid-phase peptide synthesis; Rink amide 0.52 mmol/g; DIC/HOBt

Question: For “PEPTIDE1{[ac].I.W.L.T.A.L.K.F.L.G.K.N.L.G.K.L.A.K.Q.Q.C.A.K.L.[am]}$$$$V2.0”, which step yield (purification step) is on record?
Answer: about 65%

Question: What about the crude mass (whole synthesis) of the same substance?
Answer: 100 mg

Question: And the crude yield (whole synthesis, scale of the general procedure 160 mg of Rink amide resin)?
Answer: about 50%
